Assay results: article doi:10.1101/2020.05.06.071340
Changes are numbered by the printed parent chain. For some of these results: The comparison behind a weaker result is the experiment's own reference, which may not be listed here. For some of these results: Tags and fusion partners may be left off the protein sequences shown. For some of these results: Construct, isoform or probe ends are uncertain for at least one entry. For some of these results: A negative result means that nothing was seen under these conditions. For some of these results: At least one verdict rests on a figure or table, not on a statement of the authors.

The chains behind the UniProt entries cited, without tags or fusion partners. Residues count along the entry.
UniProt Q9LKL2, 567-590: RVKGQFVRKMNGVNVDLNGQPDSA
UniProt Q9LKL2, 533-575 K551A/K552A/K559A: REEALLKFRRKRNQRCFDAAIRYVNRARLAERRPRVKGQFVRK
UniProt Q9LKL2, 533-575 A562D: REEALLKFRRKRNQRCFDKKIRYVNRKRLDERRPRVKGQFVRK
UniProt Q9LKL2, 533-575 R565A: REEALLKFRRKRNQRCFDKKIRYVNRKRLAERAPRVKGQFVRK
UniProt Q9LKL2, 533-575 R560A: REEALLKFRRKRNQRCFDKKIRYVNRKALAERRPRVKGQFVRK
UniProt Q9LKL2, 533-575 R558A: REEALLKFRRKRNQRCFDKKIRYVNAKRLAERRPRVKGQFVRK
UniProt Q9LKL2, 533-575 K551A: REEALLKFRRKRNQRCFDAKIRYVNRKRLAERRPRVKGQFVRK
UniProt Q9LKL2, 533-575 R564A: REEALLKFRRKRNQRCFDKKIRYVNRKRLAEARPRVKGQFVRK
UniProt Q9LKL2, 533-575 K559A: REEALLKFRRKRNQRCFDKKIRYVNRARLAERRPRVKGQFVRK
UniProt Q9LKL2, 533-575 K552A: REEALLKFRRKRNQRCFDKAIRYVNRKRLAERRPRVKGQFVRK
UniProt Q39057, 306-348: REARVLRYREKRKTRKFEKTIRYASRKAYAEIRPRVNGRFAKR

How the values were obtained:
CCTC (Arabidopsis) = CCTC (Arabidopsis) (UniProt Q9LKL2); test: NMR; settings: 5 mM Mg2+, weak shift perturbation only, as for SUMO control; residues 567-590
CCT550-565 (Arabidopsis) = CCT550-565 (Arabidopsis) (UniProt Q9LKL2); test: NMR; settings: 5 mM Mg2+, lesser broadening, intermolecular NOEs; residues 550-565
CCT533-547 (Arabidopsis) = CCT533-547 (Arabidopsis) (UniProt Q9LKL2); test: NMR; settings: 5 mM Mg2+, lesser broadening; residues 533-547
[1] = molecular target: T1, TOC1-CCT R554A (Arabidopsis) (UniProt Q9LKL2); test: EMSA; settings: no significant change; residues 533-575
T1 sequence (looked up): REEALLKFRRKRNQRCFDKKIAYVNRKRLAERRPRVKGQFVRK

PRR5-CCT (Arabidopsis) = molecular target: T2, PRR5-CCT (Arabidopsis) (UniProt Q6LA42); test: EMSA; settings: residues 509-551
T2 sequence (looked up): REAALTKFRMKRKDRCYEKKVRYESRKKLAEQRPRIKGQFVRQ

[2] = molecular target: T3, TOC1-CCT-5c K551A,K552A,K559A (Arabidopsis) (UniProt Q9LKL2); test: EMSA; settings: significant reduction; residues 533-575
T3 sequence (looked up): T1 sequence (looked up) with K19A, K20A, A22R, K27A

[3] = molecular target: T4, TOC1-CCT A562D (Arabidopsis) (UniProt Q9LKL2); test: EMSA; settings: mildly impaired; residues 533-575
T4 sequence (looked up): T1 sequence (looked up) with A22R, A30D

[4] = molecular target: T5, TOC1-CCT-9m K551A,K552A,R554A,R558A,K559A,R560A,A562D,R564A,R565A (Arabidopsis) (UniProt Q9LKL2); test: EMSA; settings: lost almost all binding; residues 533-575
T5 sequence (looked up): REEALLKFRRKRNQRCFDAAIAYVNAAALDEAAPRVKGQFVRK

[5] = molecular target: T6, TOC1-CCT R565A (Arabidopsis) (UniProt Q9LKL2); test: EMSA; settings: no significant change; residues 533-575
T6 sequence (looked up): T1 sequence (looked up) with A22R, R33A

[6] = molecular target: T7, TOC1-CCT R560A (Arabidopsis) (UniProt Q9LKL2); test: EMSA; settings: mildly impaired; residues 533-575
T7 sequence (looked up): T1 sequence (looked up) with A22R, R28A

[7] = molecular target: T8, TOC1-CCT R558A (Arabidopsis) (UniProt Q9LKL2); test: EMSA; settings: no significant change; residues 533-575
T8 sequence (looked up): T1 sequence (looked up) with A22R, R26A

[8] = molecular target: T9, TOC1-CCT K551A (Arabidopsis) (UniProt Q9LKL2); test: EMSA; settings: no significant change; residues 533-575
T9 sequence (looked up): T1 sequence (looked up) with K19A, A22R

[9] = molecular target: T10, TOC1-CCT R564A (Arabidopsis) (UniProt Q9LKL2); test: EMSA; settings: no significant change; residues 533-575
T10 sequence (looked up): T1 sequence (looked up) with A22R, R32A

CO-CCT (Arabidopsis) = CO-CCT (Arabidopsis) (UniProt Q39057); test: EMSA; settings: residues 306-348
[10] = molecular target: T11, TOC1-CCT K559A (Arabidopsis) (UniProt Q9LKL2); test: EMSA; settings: no significant change; residues 533-575
T11 sequence (looked up): T1 sequence (looked up) with A22R, K27A

LUX-GST = test: EMSA
[11] = molecular target: T12, TOC1-CCT-6c R554A,R558A,R560A,R564A,R565A (Arabidopsis) (UniProt Q9LKL2); test: EMSA; settings: significant reduction; residues 533-575
T12 sequence (looked up): T5 sequence (looked up) with A19K, A20K, A27K, D30A

[12] = molecular target: T13, TOC1-CCT K552A (Arabidopsis) (UniProt Q9LKL2); test: EMSA; settings: mildly impaired; residues 533-575
T13 sequence (looked up): T1 sequence (looked up) with K20A, A22R

GST = test: EMSA

Sequence | binding result (CCTC (Arabidopsis)) | binding result (CCT550-565 (Arabidopsis)) | binding result (CCT533-547 (Arabidopsis)) | binding result [1] | binding result (PRR5-CCT (Arabidopsis)) | binding result [2] | binding result [3] | binding result [4] | binding result [5] | binding result [6] | binding result [7] | binding result [8] | binding result [9] | binding result (CO-CCT (Arabidopsis)) | binding result [10] | binding result (LUX-GST) | binding result [11] | binding result [12] | binding result (GST)
UGGAGGGGA [NMR RNA] | binds more weakly | binds more weakly | binds more weakly | – | – | – | – | – | – | – | – | – | – | – | – | – | – | – | –
AAAUAAAUGGAGGGGAAAAAUAAAU [G-rich RNA probe] | – | – | – | binds | binds more weakly | binds more weakly | binds more weakly | binds more weakly | binds | binds more weakly | binds | binds | binds | binds more weakly | binds | no binding | binds more weakly | binds more weakly | no binding
